Values of other authors as cited in patent US20190231770A1, “COMBINATION COMPOSITIONS COMPRISING FXR AGONISTS FOR TREATING OR PREVENTING A FIBROTIC, CIRRHOTIC DISEASE OR DISORDER” (Novartis AG, priority 2016, published 2019).
At least one compound was matched to its structure with a doubt left.

Settings: nonalcoholic steatohepatitis patients

CC[C@H]1[C@@H](O)[C@@H]2[C@H](CC[C@]3(C)[C@@H]([C@H](C)CCC(=O)O)CC[C@@H]23)[C@@]2(C)CC[C@@H](O)C[C@@H]12 [obeticholic acid, Obeticholic acid]
NAFLD Activity Score (NAS): significant improvement
